These are yes or no findings as the source states them, for the method shown. Binding can be weak; no strength is given.

This assay deals with African green monkey IL-6 (African green monkey). Nature of the assay: affinity studies.

B1: 018 Fab (Fab, V domains shown)
VH: QVQLVQSGAEVKKPGSSVKVSCKASGYALSNYLIEWVRQAPGQGLEWMGVITPGSGTINYAQKFQGRVTITADESTSTAYMELSSLRSEDTAVYYCARSRWDPLYYYALEYWGQGTTVTVSS
VL: DIVMTQSPDSLAVSLGERATINCRASESVDNYGIPFMNWYQQKPGQPPKLLIYAASNRGSGVPDRFSGSGSGTDFTLTISSLQAEDVAVYYCQQSEEVPLTFGQGTKLEIKR
Regarding B1, the binding result was “binds”.
